Part of at least one peptide drawing is inferred or uncertain, most often the ends.
Columns and labels:
rat diaphragm fragments = experiment: Glycogenesis: glycogen synthesis in rat diaphragm fragments; format: cell-based
Experimental: (§1) The biological activity of the peptides of formula I according to the invention is determined with the aid of preparatively isolated rat fat cells and diaphragm fragments.
Preparation of rat diaphragm fragments: Small tissue fragments (5 mm diameter) are punched out of hemidiaphragms (Wistar rat, 60-70 g, no feed restriction) which have been washed several times.
This test determines the insulin-stimulatable glycogen synthesis in muscle cells, comprising the glucose transport via the plasma membrane and the conversion of the glucose to glycogen, including the functional insulin signal transmission cascade.
Diaphragm fragments are incubated for 15 min at 37° C. in Krebs-Ringer-Henseleit buffer (KRH buffer) with 50 μM D-[U-^14 C]glucose in the presence or absence of insulin or the peptides according to the invention. After the medium has been filtered with suction, the tissue fragments are intensively washed, frozen at -70° C. and then homogenized at 2° C. in a Polytron pulverizer. The homogenate is centrifuged (2000 g) and the supernatant is pipetted onto filter paper. To determine the glycogen formed, the filters are transferred into trichloroacetic acid (TCA) (5%), washed with ethanol and acetone and dried and their radioactivity is determined via scintillation measurement ([^14 C]glycogen [dpm×10^-3 ]).
(§2) The action of human insulin (HI) is given a value of 100%. […]

rat fat cells = experiment: Lipogenesis: conversion of glucose to toluene-soluble products in isolated rat fat cells; format: cell-based
Experimental: as §1
(§3) Rat fat cells were prepared as follows: Fatty tissue of the epididymis (Wistar rat, 160-180 g, no feed restriction) is digested with collagenase and the resulting isolated fat cells are washed several times by flotation.
This test determines the insulin-stimulatable conversion of glucose to toluene-soluble products (triglycerides, phospholipids, fatty acids), requiring the glucose transport and the triglyceride (glycerol-3-P synthesis, esterification)/phospholipid/fatty acid synthesis, including the insulin signal transmission cascade.
Rat fat cells in KRH buffer are incubated for 90 min at 37° C. with D-[3-^3 H]glucose (0.2 mM or 1 mM final concentration) in the presence or absence of insulin or peptides according to the invention. By the addition of a toluene-soluble scintillation cocktail, the cells are digested and the lipids separated from water-soluble products and the incubation medium. After phase separation, the radioactivity incorporated into lipids is determined by scintillation measurement directly without removal of the aqueous phase ([^3 H]lipid [dpm×10^-3 ]).
as §2

[1] = tested on: plasma membrane vesicles from rat fat cells; experiment: Glucose transport activity in isolated plasma membrane vesicles; format: biochemical
Experimental: as §1, §3
C) Glucose transport activity
Isolated plasma membrane vesicles are obtained from rat fat cells by washing the fat cells twice in homogenization buffer (20 mM trihydroxyaminomethane (Tris)/HCl, pH 7.4, 1 mM, 4° C., EDTA, 0.25M sucrose) and then homogenizing them in 20 ml of the same buffer (glass homogenizer with Teflon pestle).
The homogenate is centrifuged (16,000×g, 15 min) and the sediment is suspended in the same buffer and centrifuged again. […]
Isolated plasma membrane vesicles are incubated for 30 min at 25° C. in the presence or absence of insulin or the peptides according to the invention. The vesicles are then incubated for 10 sec at 25° C. with 50 μM D-[3-^3 H]glucose and […] of the same specific radioactivity. […] Their radioactivity is determined by liquid scintillation measurement. The specific transport (D-[^3 H]glucose/L-[^4 C]glucose [dpm×10^-3 ]) is calculated as the difference between the [^3 H] and [^14 C] radioactivity. […]

[2] = 25% of the maximum human insulin action

## CO[C@H]1O[C@H](COP(=O)(O)OCCNC(=O)[C@H](CC(N)=O)NC(=O)[C@H](CS)NC(=O)[C@@H](N)Cc2ccc(O)cc2)[C@@H](O)[C@H](O)[C@@H]1O [Example 14, H--L--Tyr--L--Cys--L--Asn--NH--(CH2)2 --O--PO(OH)--O--6Manα1--O--CH3]
Rat diaphragm fragments; [2]
  Concentration [μM] at which 25% of the max. HI action is reached (glycogenesis): 90 µM
Rat diaphragm fragments; 15 min at 37° C., 50 μM D-[U-14C]glucose, human insulin (HI) = 100%
  Glycogenesis % of the max. HI action: 32%
Rat fat cells; [2]
  Concentration [μM] at which 25% of the max. HI action is reached (lipogenesis): 95 µM
Rat fat cells; 90 min at 37° C., D-[3-3H]glucose, human insulin (HI) = 100%
  Lipogenesis % of the max. HI action: 37%
[1]; 20% of the maximum human insulin action
  Concentration [μM] at which 20% of the max. HI action is reached (glucose transport): 105 µM
[1]; 30 min at 25° C., then 10 sec with 50 μM D-[3-3H]glucose, human insulin (HI) = 100%
  Glucose transport % of the max. HI action: 40%

From patent publication US5622934A, “Peptides with an insulin-like action” (priority 1991, dated 1997)
